This is an account of results in PMC6759600.

Sequences of proteins named here, by UniProt entry; tags and fusion partners are left off.
UniProt Q96SW2: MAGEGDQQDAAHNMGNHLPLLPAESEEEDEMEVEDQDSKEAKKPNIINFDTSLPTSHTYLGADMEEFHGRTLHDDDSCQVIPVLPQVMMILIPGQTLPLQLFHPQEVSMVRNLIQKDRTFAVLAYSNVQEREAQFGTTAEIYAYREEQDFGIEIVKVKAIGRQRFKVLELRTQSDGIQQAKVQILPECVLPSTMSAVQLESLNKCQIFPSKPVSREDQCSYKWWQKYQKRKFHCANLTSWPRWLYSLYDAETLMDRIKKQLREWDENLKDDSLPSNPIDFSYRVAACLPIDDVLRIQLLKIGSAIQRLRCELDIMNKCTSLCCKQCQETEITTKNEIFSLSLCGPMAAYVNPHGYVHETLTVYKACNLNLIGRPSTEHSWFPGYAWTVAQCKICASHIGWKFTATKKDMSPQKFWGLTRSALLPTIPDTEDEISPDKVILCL

In test [1] the target is T1, Myc-ECSIT (UniProt Q9BQ95).
T1 sequence: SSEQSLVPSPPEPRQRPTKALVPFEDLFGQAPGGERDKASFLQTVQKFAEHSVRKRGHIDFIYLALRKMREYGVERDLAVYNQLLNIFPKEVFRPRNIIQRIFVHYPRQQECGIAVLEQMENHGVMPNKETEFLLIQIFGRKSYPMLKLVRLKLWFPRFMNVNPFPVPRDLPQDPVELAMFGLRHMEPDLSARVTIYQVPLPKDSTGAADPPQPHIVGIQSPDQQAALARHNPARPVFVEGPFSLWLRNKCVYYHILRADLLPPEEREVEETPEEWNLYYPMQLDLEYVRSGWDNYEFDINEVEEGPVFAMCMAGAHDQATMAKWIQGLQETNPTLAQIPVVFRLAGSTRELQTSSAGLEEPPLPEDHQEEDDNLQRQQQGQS
In words: co-IP; HEK293T cells co-transfected with Myc-ECSIT, Flag-TRAF6 and different concentrations of Flag-CRBN vector; IP with anti-Myc antibody, immunoblot with anti-Flag, anti-Myc or anti-TRAF6. On the technique in general: In western blotting, separated proteins are transferred to a membrane and probed.

Test [2] addresses T2, Flag-ECSIT 1-100 (UniProt Q9BQ95).
T2 sequence: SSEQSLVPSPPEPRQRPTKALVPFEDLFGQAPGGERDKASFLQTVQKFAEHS
In words: co-IP; HEK293T cells co-transfected, harvested 38 h after transfection; IP with anti-Flag antibody, immunoblot with anti-Flag or anti-Myc.

The target in test [3] is T3, Flag-ECSIT 1-200 (UniProt Q9BQ95).
T3 sequence: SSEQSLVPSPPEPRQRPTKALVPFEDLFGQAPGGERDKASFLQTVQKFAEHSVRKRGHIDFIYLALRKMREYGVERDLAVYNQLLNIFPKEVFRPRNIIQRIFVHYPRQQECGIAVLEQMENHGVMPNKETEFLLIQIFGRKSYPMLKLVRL
Described as above.

The target in test [4] is T4, Flag-ECSIT wild type (UniProt Q9BQ95).
T4 sequence: T1 sequence
Described as above.

The target in test [5] is T5, Flag-ECSIT 1-300 (UniProt Q9BQ95).
T5 sequence: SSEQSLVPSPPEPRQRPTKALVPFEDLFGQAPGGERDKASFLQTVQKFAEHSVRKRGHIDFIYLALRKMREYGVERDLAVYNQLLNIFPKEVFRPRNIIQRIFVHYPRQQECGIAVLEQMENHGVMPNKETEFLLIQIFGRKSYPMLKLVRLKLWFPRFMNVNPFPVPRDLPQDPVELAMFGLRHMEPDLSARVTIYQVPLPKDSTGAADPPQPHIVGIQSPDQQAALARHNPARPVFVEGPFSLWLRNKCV
The description is as above.

Results are given in words; binding and its absence hold for the method and conditions named. In cells and extracts the contact can be indirect. Some results given as binding are weak or reduced against the parent protein; the word gives no strength. Sequences can lack the tags named with a protein.

Consider Flag-CRBN (from UniProt Q96SW2 1-442), for which the binding result in test [1] is recorded as “binds”.
On to “Myc-CRBN wild type (from UniProt Q96SW2 1-442)”, for which the binding entry in test [2] is reported as “no binding”; in test [3] it was “no binding”; in test [4], “binds”; in test [5] it was “binds”.
